# Drug screen on melanoma cell lines: apoptosis marker

Data from the primary screen of doi:10.1371/journal.pone.0140310, rounded.

First drug in all entries: tipifarnib, 0.05 µM, Cn1cncc1[C@@](N)(c1ccc(Cl)cc1)c1ccc2c(c1)c(-c1cccc(Cl)c1)cc(=O)n2C

Drugs:
decitabine, 0.5 µM: Nc1ncn([C@H]2C[C@H](O)[C@@H](CO)O2)c(=O)n1
BI-D1870, 1 µM: CC(C)CCN1c2nc(Nc3cc(F)c(O)c(F)c3)ncc2N(C)C(=O)C1C (configuration not stated)
ABT-263, 2 µM: CC1(C)CCC(c2ccc(Cl)cc2)=C(CN2CCN(c3ccc(C(=O)NS(=O)(=O)c4ccc(N[C@H](CCN5CCOCC5)CSc5ccccc5)c(S(=O)(=O)C(F)(F)F)c4)cc3)CC2)C1
CP-690550, 5 µM: C[C@@H]1CCN(C(=O)CC#N)C[C@@H]1N(C)c1ncnc2[nH]ccc12
midostaurin, 0.4 µM: CO[C@@H]1[C@H](N(C)C(=O)c2ccccc2)C[C@H]2O[C@]1(C)n1c3ccccc3c3c4c(c5c6ccccc6n2c5c31)C(=O)NC4
IMD-0354, 0.08 µM: O=C(Nc1cc(C(F)(F)F)cc(C(F)(F)F)c1)c1cc(Cl)ccc1O
dasatinib, 0.02 µM: Cc1nc(Nc2ncc(C(=O)Nc3c(C)cccc3Cl)s2)cc(N2CCN(CCO)CC2)n1
BMS-536924, 1 µM: Cc1cc(N2CCOCC2)cc2[nH]c(-c3c(NC[C@@H](O)c4cccc(Cl)c4)cc[nH]c3=O)nc12
PD173074, 0.5 µM: CCN(CC)CCCCNc1ncc2cc(-c3cc(OC)cc(OC)c3)c(NC(=O)NC(C)(C)C)nc2n1
GW0742, 10 µM: Cc1cc(SCc2sc(-c3ccc(C(F)(F)F)c(F)c3)nc2C)ccc1OCC(=O)O
nutlin-3, 0.5 µM: COc1ccc(C2=N[C@@H](c3ccc(Cl)cc3)[C@@H](c3ccc(Cl)cc3)N2C(=O)N2CCNC(=O)C2)c(OC(C)C)c1
PF-04217903, 5 µM: OCCn1cc(-c2cnc3nnn(Cc4ccc5ncccc5c4)c3n2)cn1
GW9662, 10 µM: O=C(Nc1ccccc1)c1cc([N+](=O)[O-])ccc1Cl
lestaurtinib, 0.02 µM: C[C@]12O[C@H](C[C@]1(O)CO)n1c3ccccc3c3c4c(c5c6ccccc6n2c5c31)CNC4=O
nilotinib, 1 µM: Cc1cn(-c2cc(NC(=O)c3ccc(C)c(Nc4nccc(-c5cccnc5)n4)c3)cc(C(F)(F)F)c2)cn1
MK-1775, 0.1 µM: C=CCn1c(=O)c2cnc(Nc3ccc(N4CCN(C)CC4)cc3)nc2n1-c1cccc(C(C)(C)O)n1
Src-I1, 10 µM: COc1cc2ncnc(Nc3ccc(Oc4ccccc4)cc3)c2cc1OC
SU6656, 2 µM: CN(C)S(=O)(=O)c1ccc2c(c1)/C(=C/c1cc3c([nH]1)CCCC3)C(=O)N2
XAV939, 10 µM: Oc1nc(-c2ccc(C(F)(F)F)cc2)nc2c1CSCC2
fludarabine, 1 µM: Nc1nc(F)nc2c1ncn2[C@@H]1O[C@H](CO)[C@@H](O)[C@@H]1O
GSK0660, 5 µM: COC(=O)c1sccc1S(=O)(=O)Nc1ccc(Nc2ccccc2)cc1OC
CHIR-265, 0.4 µM: Cn1c(Nc2ccc(C(F)(F)F)cc2)nc2cc(Oc3ccnc(-c4ncc(C(F)(F)F)[nH]4)c3)ccc21
STA-4783, 0.03 µM: CN(NC(=O)CC(=O)NN(C)C(=S)c1ccccc1)C(=S)c1ccccc1

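Human melanoma cells were exposed to a pair of drugs for 72 h in 1,536-well plates and read by automated microscopy after fixing and staining. The read-out is the fraction of cleaved-PARP-positive nuclei, in % of that fraction in the DMSO control; 200 means twice the control level of this apoptosis marker. Every drug was used at one fixed concentration, the higher of two screened. The file gives one value for each pair and line, without errors, so small differences may be noise. The marker varies much from line to line, for technical or biological reasons.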
An unselected part of the screen is shown.
A dash means that no value is listed here.

Second drug | WM115 | A101D | MeWo | WM451Lu | MEL-HO | LB2518-MEL | A375 | 501mel
IMD-0354 | 138 | 48.4 | 104 | 185 | 75.2 | 64.8 | - | -
MK-1775 | 378 | 793 | 102 | 85.4 | 155 | 652 | - | -
ABT-263 | 165 | 243 | 321 | 506 | 286 | 178 | - | -
GW9662 | 287 | 63.8 | 210 | 401 | 104 | 102 | 323 | 288
SU6656 | 453 | 71.7 | 123 | 456 | 77.0 | 187 | - | -
GW0742 | 60.9 | 92.0 | 99.2 | 204 | 105 | 77.5 | 132 | 270
midostaurin | 329 | 171 | 80.9 | 171 | 96.7 | 297 | - | -
GSK0660 | 64.4 | 98.7 | 112 | 214 | 57.4 | 116 | 130 | 97.6
dasatinib | 76.1 | 170 | 41.5 | 283 | 96.1 | 285 | - | -
lestaurtinib | 113 | 374 | 199 | 409 | 45.7 | 203 | - | -
BI-D1870 | 136 | 78.7 | 219 | 214 | 62.8 | 117 | 142 | 500
STA-4783 | 1030 | 175 | 1770 | 256 | 41.0 | 1020 | - | -
BMS-536924 | 170 | 390 | 99.0 | 95.9 | 160 | 76.9 | - | -
XAV939 | 127 | 32.3 | 56.1 | 536 | 97.2 | 38.0 | 69.9 | 118
nilotinib | 58.1 | 129 | 94.2 | 115 | 235 | 130 | - | -
PD173074 | 55.3 | 244 | 44.5 | 354 | 47.3 | 73.4 | 113 | 26.5
decitabine | 107 | 89.6 | 136 | 46.8 | 74.1 | - | - | -
CP-690550 | 66.4 | 63.7 | 69.5 | 130 | 33.8 | 83.3 | - | -
Src-I1 | 191 | 80.6 | 171 | 247 | 111 | 99.9 | 185 | 165
nutlin-3 | 297 | 434 | 122 | 146 | 68.3 | 188 | - | -
fludarabine | 245 | 138 | 64.4 | 239 | 88.2 | 74.1 | - | -
PF-04217903 | 93.4 | 206 | 84.5 | 163 | 152 | 34.2 | - | -
CHIR-265 | 1480 | 143 | 111 | 581 | 88.8 | 536 | - | -

Repeated from the top, 3 entries:

Second drug	WM115	A101D	MeWo	WM451Lu	MEL-HO	LB2518-MEL	A375	501mel
IMD-0354	138	48.4	104	185	75.2	64.8	-	-
MK-1775	378	793	102	85.4	155	652	-	-
ABT-263	165	243	321	506	286	178	-	-